Results from article PMC11193767.

Protein sequences, listed by entry. Tags and fused reporters are not part of them.
UniProt Q8IWT6: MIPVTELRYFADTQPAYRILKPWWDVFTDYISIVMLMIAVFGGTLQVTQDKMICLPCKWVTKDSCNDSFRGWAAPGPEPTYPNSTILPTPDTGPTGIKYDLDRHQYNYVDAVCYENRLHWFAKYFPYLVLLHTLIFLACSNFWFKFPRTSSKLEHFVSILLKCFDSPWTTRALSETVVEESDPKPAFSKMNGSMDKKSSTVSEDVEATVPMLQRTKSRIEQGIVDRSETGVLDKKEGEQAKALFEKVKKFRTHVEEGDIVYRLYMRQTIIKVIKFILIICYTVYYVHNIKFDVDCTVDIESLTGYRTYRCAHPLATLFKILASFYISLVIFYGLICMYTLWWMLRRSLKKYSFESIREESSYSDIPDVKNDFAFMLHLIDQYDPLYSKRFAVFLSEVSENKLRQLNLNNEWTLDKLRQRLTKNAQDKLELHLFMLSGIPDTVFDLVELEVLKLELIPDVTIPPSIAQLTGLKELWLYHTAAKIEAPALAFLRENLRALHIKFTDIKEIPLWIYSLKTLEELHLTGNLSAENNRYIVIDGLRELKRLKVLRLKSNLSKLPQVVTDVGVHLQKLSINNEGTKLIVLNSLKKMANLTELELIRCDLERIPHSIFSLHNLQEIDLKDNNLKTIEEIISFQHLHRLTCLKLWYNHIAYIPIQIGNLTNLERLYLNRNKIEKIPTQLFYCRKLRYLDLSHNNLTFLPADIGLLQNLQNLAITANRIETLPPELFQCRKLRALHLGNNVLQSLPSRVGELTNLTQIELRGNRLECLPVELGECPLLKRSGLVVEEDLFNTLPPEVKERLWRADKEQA

B1: Dual specificity protein kinase TTK (protein, UniProt P33981-1 1-857)
chain: MESEDLSGRELTIDSIMNKVRDIKNKFKNEDLTDELSLNKISADTTDNSGTVNQIMMMANNPEDWLSLLLKLEKNSVPLSDALLNKLIGRYSQAIEALPPDKYGQNESFARIQVRFAELKAIQEPDDARDYFQMARANCKKFAFVHISFAQFELSQGNVKKSKQLLQKAVERGAVPLEMLEIALRNLNLQKKQLLSEEEKKNLSASTVLTAQESFSGSLGHLQNRNNSCDSRGQTTKARFLYGENMPPQDAEIGYRNSLRQTNKTKQSCPFGRVPVNLLNSPDCDVKTDDSVVPCFMKRQTSRSECRDLVVPGSKPSGNDSCELRNLKSVQNSHFKEPLVSDEKSSELIITDSITLKNKTESSLLAKLEETKEYQEPEVPESNQKQWQSKRKSECINQNPAASSNHWQIPELARKVNTEQKHTTFEQPVFSVSKQSPPISTSKWFDPKSICKTPSSNTLDDYMSCFRTPVVKNDFPPACQLSTPYGQPACFQQQQHQILATPLQNLQVLASSSANECISVKGRIYSILKQIGSGGSSKVFQVLNEKKQIYAIKYVNLEEADNQTLDSYRNEIAYLNKLQQHSDKIIRLYDYEITDQYIYMVMECGNIDLNSWLKKKKSIDPWERKSYWKNMLEAVHTIHQHGIVHSDLKPANFLIVDGMLKLIDFGIANQMQPDTTSVVKDSQVGTVNYMPPEAIKDMSSSRENGKSKSKISPKSDVWSLGCILYYMTYGKTPFQQIINQISKLHAIIDPNHEIEFPDIPEKDLQDVLKCCLKRDPKQRISIPELLAHPYVQIQTHPVNQMAKGTTEEMKYVLGQLVGLNSPNSILKAAKTLYEHYSGGESHNSSSSKTFEKKRGKK
B2: Macoilin 1 (protein, UniProt Q8N5G2-1 1-664)
chain: MKRRNADCSKLRRPLKRNRITEGIYGSTFLYLKFLVVWALVLLADFVLEFRFEYLWPFWLFIRSVYDSFRYQGLAFSVFFVCVAFTSNIICLLFIPIQWLFFAASTYVWVQYVWHTERGVCLPTVSLWILFVYIEAAIRFKDLKNFHVDLCRPFAAHCIGYPVVTLGFGFKSYVSYKMRLRKQKEVQKENEFYMQLLQQALPPEQQMLQKQEKEAEEAAKGLPDMDSSILIHHNGGIPANKKLSTTLPEIEYREKGKEKDKDAKKHNLGINNNNILQPVDSKIQEIEYMENHINSKRLNNDLVGSTENLLKEDSCTASSKNYKNASGVVNSSPRSHSATNGSIPSSSSKNEKKQKCTSKSPSTHKDLMENCIPNNQLSKPDALVRLEQDIKKLKADLQASRQVEQELRSQISSLSSTERGIRSEMGQLRQENELLQNKLHNAVQMKQKDKQNISQLEKKLKAEQEARSFVEKQLMEEKKRKKLEEATAARAVAFAAASRGECTETLRNRIRELEAEGKKLTMDMKVKEDQIRELELKVQELRKYKENEKDTEVLMSALSAMQDKTQHLENSLSAETRIKLDLFSALGDAKRQLEIAQGQILQKDQEIKDLKQKIAEVMAVMPSITYSAATSPLSPVSPHYSSKFVETSPSGLDPNASVYQPLKK
B3: UbiA prenyltransferase domain-containing protein 1 (protein, UniProt Q9Y5Z9-1 1-338)
chain: MAASQVLGEKINILSGETVKAGDRDPLGNDCPEQDRLPQRSWRQKCASYVLALRPWSFSASLTPVALGSALAYRSHGVLDPRLLVGCAVAVLAVHGAGNLVNTYYDFSKGIDHKKSDDRTLVDRILEPQDVVRFGVFLYTLGCVCAACLYYLSPLKLEHLALIYFGGLSGSFLYTGGIGFKYVALGDLIILITFGPLAVMFAYAIQVGSLAIFPLVYAIPLALSTEAILHSNNTRDMESDREAGIVTLAILIGPTFSYILYNTLLFLPYLVFSILATHCTISLALPLLTIPMAFSLERQFRSQAFNKLPQRTAKLNLLLGLFYVFGIILAPAGSLPKI
B4: Ubiquitin-conjugating enzyme E2 J1 (protein, UniProt Q9Y385 1-318)
chain: METRYNLKSPAVKRLMKEAAELKDPTDHYHAQPLEDNLFEWHFTVRGPPDSDFDGGVYHGRIVLPPEYPMKPPSIILLTANGRFEVGKKICLSISGHHPETWQPSWSIRTALLAIIGFMPTKGEGAIGSLDYTPEERRALAKKSQDFCCEGCGSAMKDVLLPLKSGSDSSQADQEAKELARQISFKAEVNSSGKTISESDLNHSFSLTDLQDDIPTTFQGATASTSYGLQNSSAASFHQPTQPVAKNTSMSPRQRRAQQQSQRRLSTSPDVIQGHQPRDNHTDHGGSAVLIVILTLALAALIFRRIYLANEYIFDFEL
B5: VANGL planar cell polarity protein 1 (protein, UniProt Q8TAA9-1 1-524)
chain: MDTESTYSGYSYYSSHSKKSHRQGERTRERHKSPRNKDGRGSEKSVTIQPPTGEPLLGNDSTRTEEVQDDNWGETTTAITGTSEHSISQEDIARISKDMEDSVGLDCKRYLGLTVASFLGLLVFLTPIAFILLPPILWRDELEPCGTICEGLFISMAFKLLILLIGTWALFFRKRRADMPRVFVFRALLLVLIFLFVVSYWLFYGVRILDSRDRNYQGIVQYAVSLVDALLFIHYLAIVLLELRQLQPMFTLQVVRSTDGESRFYSLGHLSIQRAALVVLENYYKDFTIYNPNLLTASKFRAAKHMAGLKVYNVDGPSNNATGQSRAMIAAAARRRDSSHNELYYEEAEHERRVKKRKARLVVAVEEAFIHIQRLQAEEQQKAPGEVMDPREAAQAIFPSMARALQKYLRITRQQNYHSMESILQHLAFCITNGMTPKAFLERYLSAGPTLQYDKDRWLSTQWRLVSDEAVTNGLRDGIVFVLKCLDFSLVVNVKKIPFIILSEEFIDPKSHKFVLRLQSETSV
B6: WD repeat domain phosphoinositide-interacting protein 2 (protein, UniProt Q9Y4P8-1 1-454)
chain: MNLASQSGEAGAGQLLFANFNQDNTEVKGASRAAGLGRRAVVWSLAVGSKSGYKFFSLSSVDKLEQIYECTDTEDVCIVERLFSSSLVAIVSLKAPRKLKVCHFKKGTEICNYSYSNTILAVKLNRQRLIVCLEESLYIHNIRDMKVLHTIRETPPNPAGLCALSINNDNCYLAYPGSATIGEVQVFDTINLRAANMIPAHDSPLAALAFDASGTKLATASEKGTVIRVFSIPEGQKLFEFRRGVKRCVSICSLAFSMDGMFLSASSNTETVHIFKLETVKEKPPEEPTTWTGYFGKVLMASTSYLPSQVTEMFNQGRAFATVRLPFCGHKNICSLATIQKIPRLLVGAADGYLYMYNLDPQEGGECALMKQHRLDGSLETTNEILDSASHDCPLVTQTYGAAAGKGTYVPSSPTRLAYTDDLGAVGGACLEDEASALRLDEDSEHPPMILRTD
B7: Lamina-associated polypeptide 2, isoform alpha (protein, UniProt P42166 1-694)
chain: MPEFLEDPSVLTKDKLKSELVANNVTLPAGEQRKDVYVQLYLQHLTARNRPPLPAGTNSKGPPDFSSDEEREPTPVLGSGAAAAGRSRAAVGRKATKKTDKPRQEDKDDLDVTELTNEDLLDQLVKYGVNPGPIVGTTRKLYEKKLLKLREQGTESRSSTPLPTISSSAENTRQNGSNDSDRYSDNEEGKKKEHKKVKSTRDIVPFSELGTTPSGGGFFQGISFPEISTRPPLGSTELQAAKKVHTSKGDLPREPLVATNLPGRGQLQKLASERNLFISCKSSHDRCLEKSSSSSSQPEHSAMLVSTAASPSLIKETTTGYYKDIVENICGREKSGIQPLCPERSHISDQSPLSSKRKALEESESSQLISPPLAQAIRDYVNSLLVQGGVGSLPGTSNSMPPLDVENIQKRIDQSKFQETEFLSPPRKVPRLSEKSVEERDSGSFVAFQNIPGSELMSSFAKTVVSHSLTTLGLEVAKQSQHDKIDASELSFPFHESILKVIEEEWQQVDRQLPSLACKYPVSSREATQILSVPKVDDEILGFISEATPLGGIQAASTESCNQQLDLALCRAYEAAASALQIATHTAFVAKAMQADISQAAQILSSDPSRTHQALGILSKTYDAASYICEAAFDEVKMAAHTMGNATVGRRYLWLKDCKINLASKNKLASTPFKGGTLFGGEVCKVIKKRGNKH
B8: USP6 N-terminal-like protein (protein, UniProt Q92738-2 1-845)
chain: MRTEAVVNSQGQTDYLTKDSDQDVALKLAQERAEIVAKYDRGREGAEIEPWEDADYLVYKVTDRFGFLHEEELPDHNVAVERQKHLEIERTTKWLKMLKGWEKYKNTEKFHRRIYKGIPLQLRGEVWALLLEIPKMKEETRDLYSKLKHRARGCSPDIRQIDLDVNRTFRDHIMFRDRYGVKQQSLFHVLAAYSIYNTEVGYCQGMSQITALLLMYMNEEDAFWALVKLFSGPKHAMHGFFVQGFPKLLRFQEHHEKILNKFLSKLKQHLDSQEIYTSFYTMKWFFQCFLDRTPFTLNLRIWDIYIFEGERVLTAMSYTILKLHKKHLMKLSMEELVEFFQETLAKDFFFEDDFVIEQLQISMTELKRAKLDLPEPGKEDEYPKKPLGQLPPELQSWGVHHLSNGQRSVGRPSPLASGRRESGAPHRRHEHSPHPQSRTGTPERAQPPRRKSVEEESKKLKDEADFQRKLPSGPQDSSRQYNHAAANQNSNATSNIRKEFVPKWNKPSDVSATERTAKYTMEGKGRAAHPALAVTVPGPAEVRVSNVRPKMKALDAEDGKRGSTASQYDNVPGPELDSGASVEEALERAYSQSPRHALYPPSPRKHAEPSSSPSKVSNKFTFKVQPPSHARYPSQLDGEARGLAHPPSYSNPPVYHGNSPKHFPTANSSFASPQFSPGTQLNPSRRPHGSTLSVSASPEKSYSRPSPLVLPSSRIEVLPVDTGAGGYSGNSGSPKNGKLIIPPVDYLPDNRTWSEVSYTYRPETQGQSWTRDASRGNLPKYSAFQLAPFQDHGLPAVSVDSPVRYKASPAAEDASPSGYPYSGPPPPAYHYRNRDGLSIQESVLL
B9: Rho GTPase activating protein 39 (protein, UniProt Q9C0H5-2 1-1114)
chain: MSQTQDYECRSHNVDLPESRIPGSNTRLEWVEIIEPRTRERMYANLVTGECVWDPPAGVRIKRTSENQWWELFDPNTSRFYYYNASTQRTVWHRPQGCDIIPLAKLQTLKQNTESPRASAESSPGRGSSVSREGSTSSSLEPEPDTEKAQELPARAGRPAAFGTVKEDSGSSSPPGVFLEKDYEIYRDYSADGQLLHYRTSSLRWNSGAKERMLIKVADREPSFLAAQGNGYAPDGPPGVRSRRPSGSQHSPSLQTFAPEADGTIFFPERRPSPFLKRAELPGSSSPLLAQPRKPSGDSQPSSPRYGYEPPLYEEPPVEYQAPIYDEPPMDVQFEAGGGYQAGSPQRSPGRKPRPFLQPNKQGPPSPCQQLVLTKQKCPERFLSLEYSPAGKEYVRQLVYVEQAGSSPKLRAGPRHKYAPNPGGGSYSLQPSPCLLRDQRLGVKSGDYSTMEGPELRHSQPPTPLPQAQEDAMSWSSQQDTLSSTGYSPGTRKRKSRKPSLCQATSATPTEGPGDLLVEQPLAEEQPPCGTSLAPVKRAEGEAEGARGAAEPFLAQARLAWEAQQAHFHMKQRSSWDSQQDGSGYESDGALPLPMPGPVVRAFSEDEALAQQENRHWRRGTFEKLGFPQILLEKSVSVQTNLASPEPYLHPSQSEDLAACAQFESSRQSRSGVPSSSCVFPTFTLRKPSSETDIENWASKHFNKHTQGLFRRKVSIANMLAWSSESIKKPMIVTSDRHVKKEACELFKLIQMYMGDRRAKADPLHVALEVATKGWSVQGLRDELYIQLCRQTTENFRLESLARGWELMAICLAFFPPTPKFHSYLEGYIYRHMDPVNDTKVTQHIKELLERNTKKKSKLRKKPKPYVEEPDGVAISTYAKYCYHKLQKAALTGAKKGLKKPNVEEIRHAKNAVFSPSMFGSALQEVMGMQRERYPERQLPWVQTRLSEEVLALNGDQTEGIFRVPGDIDEVNALKLQVDQWKVPTGLEDPHVPASLLKLWYRELEEPLIPHEFYEQCIAHYDSPEAAVAVVHALPRINRMVLCYLIRFLQVFVQPANVAVTKMDVSNLAMVMAPNCLRCQSDDPRVIFENTRKEMSFLRVLIQHLDTSFMEGVL

target: LRRC8A-BirA*-HA fusion protein (human) (UniProt Q8IWT6); assay: proximity labelling; BioID: HEK293 cells stably expressing LRRC8A-BirA*-HA (two clones), 50 uM biotin 24 h, RIPA lysis, streptavidin bead pull-down of biotinylated proteins, TMT labelling and LC-MS/MS; hits: FDR <= 0.05 and fold change >= 2 against the no-biotin control

binding, binds:
B1
B2
B3
B4
B5
B6
B7
B8
B9

Results are given in words; binding and its absence hold for the method and conditions named. Binding seen in cells or lysates may run through a third protein. These calls come from enrichment with a bait or labelling near it, and not all partners need be listed.
